Binding data for 2 substances are collected here from publication PMC2724173.

By UniProt entry, the sequences of proteins in these tests, tags left out. Where a name states a change or a piece, a line headed by the entry shows the natural chain unless it says otherwise.
UniProt Q04640: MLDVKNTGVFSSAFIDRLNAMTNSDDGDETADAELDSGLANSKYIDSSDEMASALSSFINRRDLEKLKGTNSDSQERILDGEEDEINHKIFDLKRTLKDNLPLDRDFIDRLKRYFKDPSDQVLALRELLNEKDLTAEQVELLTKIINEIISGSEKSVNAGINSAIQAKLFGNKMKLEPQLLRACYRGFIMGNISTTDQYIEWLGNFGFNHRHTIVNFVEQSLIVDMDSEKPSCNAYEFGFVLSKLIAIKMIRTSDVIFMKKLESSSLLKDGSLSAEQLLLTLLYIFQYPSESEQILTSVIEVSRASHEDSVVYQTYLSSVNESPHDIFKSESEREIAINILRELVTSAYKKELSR

These are yes or no findings as the source states them, for the method shown.

Assay [1] concerns the target MxiC N-terminal truncation (residues 74–355) (Shigella flexneri) (UniProt Q04640). As to the kind of experiment: SEC; HiLoad 16/60 Superdex 200 column pre-equilibrated in 20 mM Tris (pH 7.5), 150 mM NaCl; both purified. In general terms: Size exclusion chromatography separates by hydrodynamic size, large species first.
Assay [2] has as its target MxiC full-length construct (residues 1–355) (Shigella flexneri) (UniProt Q04640). Described as above.

As to “MxiC N-terminal truncation (residues 74–355) (from UniProt Q04640 74-355) (domain or fragment)”, the binding entry in assay [1] is “no binding”. In the case of “MxiC full-length construct (residues 1–355) (from UniProt Q04640 1-355)”, the binding result in assay [2] is “no binding”.
